According to patent publication US11732048B2, “Anti-axl antagonistic antibodies” (BERGEN TEKNOLOGIOVERFØRING AS, priority 2016, dated 2023):
Substitutions are numbered along the chain they refer to.

B1: H1L1: humanised 10G5 variant; presumably VH GH1 (SEQ ID NO: 1) with VL GL1 (SEQ ID NO: 3) (antibody, V domains shown)
VH: EVQLVQSGAGLVQPGGSVRLSCAASGYSFTDFYINWVRQAPGKGLEWIARIFPGGDNTYYNEKFKGRFTLSADTSSSTAYLQLNSLRAEDTAVYYCARRGLYYAMDYWGQGTLVTVSS
VL: DIQMTQSPSSLSASVGDRVTITCRSSQSLVHSNGIPYLHWYQQKPGKAPKLLIYRVSNRFSGVPSRFSGSGSGTDFTLTISSLQPEDFATYYCSQGTHVPPTFGQGTKVEIK
modifications: hu10G5 VH(GH1); hu10G5 VL(GL1)
B2: H2L1: humanised variant of 10G5; presumably VH GH2 (SEQ ID NO: 2) with VL GL1 (SEQ ID NO: 3) (antibody, V domains shown)
VH: B1 VH with Q6E, A9G, V18L, I48V, S76K, L83M
VL: B1 VL
modifications: hu10G5 VH(GH2); hu10G5 VL(GL1)

System: MDA-MB-231 cells
Assay: Tumour cell killing using antibody-Saporin conjugates (XTT/PMS viability)
Assay type: cell-based, human
Details: comparison referring to Table 4
Method: For generation of immunotoxin, the chimeric MAb was non-covalently coupled to a plant toxin Saporin using FabFc-ZAP human conjugate (4.5 nM final concentration) (Advanced Targeting Systems, Cat. no. IT-65). The effect of chAb-Saporin internalization on tumour cell viability was tested using Axl-positive tumour cell line MDA-MB-231 (human triple negative breast carcinoma). Eight hundred cells were seeded per well in 96-well plates in DMEM/F-12 media supplied with 10% FBS, L-glutamine (4 mM), streptomycin (5 μg/ml) and penicillin (5 U/ml) and allowed to attach for 16 hours. The cells were incubated with different dilutions of immunotoxin chAb-Saporin for 72 hrs. The viability of the cells was determined by performing an XTT/PMS assay using a CLARIOstar® microplate reader (BMG LABTECH)
Unconjugated Saporin and an isotype control antibody (human IgG1) coupled to Saporin (control SAP) were used as negative controls.
Tumour cell killing using antibody-Saporin conjugates performed as described in Example 20. A comparison of two variants of humanised 10G5 and YW327.6S2 was performed.

Molecule	EC50 lower than that of the chimeric antibody
B1	at least 35%
B2	at least 50%
